{"source": "patent US20190092814A1", "about": "(priority 2017, published 2019)", "experiment": "peptide synthesis", "settings": "whole synthesis, HPLC and MALDI-TOF MS", "note": "HELM strings list residues between dots; [ac] is acetyl, [am] amide, other brackets name non-standard units."}
{"substance": "PEPTIDE1{G.K.K.Y.R.R.F.R.W.K.F.K.G.K.L.F.L.F.G.[am]}$$$$V2.0", "values": [{"measurement": "final HPLC purity", "value": ">95", "unit": "%"}]}
